These are yes or no findings as the source states them, for the method shown. Some results given as binding are weak or reduced against the parent protein; the word gives no strength. Where a sequence is shown, tags or fusion partners need not be part of it.

Protein sequences, listed by entry. Tags and fused reporters are not part of them.
UniProt P61957: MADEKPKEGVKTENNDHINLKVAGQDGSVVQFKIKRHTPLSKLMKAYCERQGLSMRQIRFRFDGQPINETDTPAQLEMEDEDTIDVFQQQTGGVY

The target of the experiment is GST-Sumo2 fusion protein (UniProt P61957). The experiment is described as follows: pull-down; GST-Sumo2 kept bound to Glutathione Sepharose 4B; purified Flag-tagged Dcp1a incubated; western blot; both purified. For orientation: In western blotting, separated proteins are transferred to a membrane and probed.

B1: Flag-tagged wild-type Dcp1a, purified protein (protein, UniProt Q91YD3 1-602)
chain: MALSCSTVRPRRRGSALRSKMELLSRAEQEMSLAALKQHDPYITSIADLTGQVALYTFCPKANQWEKTDIEGTLFVYRRSASPYHGFTIVNRLNMHNLVEPVNKDLEFQLHEPFLLYRNASLSIYSIWFYDKNDCHRIAKLMADVVEEETRRSQQAARDKQSPSQANGCSDQRPIDILEMLSRAKDEYERNQMGGSNISSPGLQPSTQLSNLGSTETLEETPSGSQDKSAPSGHKHLTVEELFGTSLPKEQPTAMGLESEDTDKLLGDASQKEPSSFLPFPFEQSGGAPQSENLGIHSAAHHTVQPEVSTPVLITPASIAQSGDKHPPSYTLPLSPVLSPTLPAEAPTTQVPHLPRNSTMIQAVKTTPRQKSPLLNQPVPELSHSSLVASQSPFRAPVSLANPAGTALPSVDLLQKLRLTPQHDQIQAQPLGKGTMAPSFSSAAGQLATPESFIEPSSKTAAARAAVSASLSNMVLAPTLQSMQQNQDPEVFSQPKVLPSAIPIAGSPLVPATTTAVSSVLLSPSVFQQTVPRAADLERKASSPSPLTVGTAESQRKPSIILSKSQLQDTLIHLIKNDSSFLSTLHAVYLQVLTKNKDNHNL
Take B1: the binding result was “binds”.

The values above are taken from publication PMC7985304.
